# Laboratory results: the supplement of paper PMC7666118
# Chains of the proteins cited; added tags and fusions are not shown. Lines headed by an entry give the natural chain unless they say otherwise; changes in a name come on top.
# UniProt Q9UHB4: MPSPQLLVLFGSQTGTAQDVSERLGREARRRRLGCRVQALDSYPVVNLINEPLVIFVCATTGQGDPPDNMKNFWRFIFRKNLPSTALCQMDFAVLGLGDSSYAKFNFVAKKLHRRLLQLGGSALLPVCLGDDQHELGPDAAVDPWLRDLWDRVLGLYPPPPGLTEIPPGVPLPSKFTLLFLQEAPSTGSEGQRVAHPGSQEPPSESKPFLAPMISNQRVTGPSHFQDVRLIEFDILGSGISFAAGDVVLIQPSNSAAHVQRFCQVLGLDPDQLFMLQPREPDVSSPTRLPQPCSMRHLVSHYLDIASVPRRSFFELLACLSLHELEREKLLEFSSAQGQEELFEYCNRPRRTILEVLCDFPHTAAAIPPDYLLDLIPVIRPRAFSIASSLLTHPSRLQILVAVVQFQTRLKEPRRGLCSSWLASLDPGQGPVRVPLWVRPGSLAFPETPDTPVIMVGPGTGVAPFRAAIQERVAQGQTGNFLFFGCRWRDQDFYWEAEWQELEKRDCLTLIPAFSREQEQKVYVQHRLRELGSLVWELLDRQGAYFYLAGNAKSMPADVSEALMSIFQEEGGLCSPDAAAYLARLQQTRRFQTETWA
# UniProt Q8NDH3: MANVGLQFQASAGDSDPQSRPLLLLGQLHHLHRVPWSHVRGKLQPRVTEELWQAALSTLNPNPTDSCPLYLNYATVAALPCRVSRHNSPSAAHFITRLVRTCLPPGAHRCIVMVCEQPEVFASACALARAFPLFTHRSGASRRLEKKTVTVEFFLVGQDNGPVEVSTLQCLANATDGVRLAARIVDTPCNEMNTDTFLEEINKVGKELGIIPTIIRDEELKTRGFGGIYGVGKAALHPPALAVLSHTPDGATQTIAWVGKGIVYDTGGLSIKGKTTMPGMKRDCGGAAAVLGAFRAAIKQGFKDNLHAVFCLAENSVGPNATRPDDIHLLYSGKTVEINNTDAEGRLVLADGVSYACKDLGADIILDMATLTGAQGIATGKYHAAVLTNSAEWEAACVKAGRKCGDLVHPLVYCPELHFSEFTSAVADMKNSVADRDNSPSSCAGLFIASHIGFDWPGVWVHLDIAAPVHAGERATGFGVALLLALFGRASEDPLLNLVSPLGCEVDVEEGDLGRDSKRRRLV
# UniProt P16083: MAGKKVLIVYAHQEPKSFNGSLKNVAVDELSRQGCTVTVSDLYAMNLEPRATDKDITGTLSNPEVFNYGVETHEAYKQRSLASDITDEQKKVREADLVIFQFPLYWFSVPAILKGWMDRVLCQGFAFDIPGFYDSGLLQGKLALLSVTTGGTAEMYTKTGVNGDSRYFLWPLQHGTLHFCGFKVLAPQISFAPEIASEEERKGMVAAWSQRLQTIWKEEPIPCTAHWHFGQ
# UniProt Q9Y5B8, whole entry: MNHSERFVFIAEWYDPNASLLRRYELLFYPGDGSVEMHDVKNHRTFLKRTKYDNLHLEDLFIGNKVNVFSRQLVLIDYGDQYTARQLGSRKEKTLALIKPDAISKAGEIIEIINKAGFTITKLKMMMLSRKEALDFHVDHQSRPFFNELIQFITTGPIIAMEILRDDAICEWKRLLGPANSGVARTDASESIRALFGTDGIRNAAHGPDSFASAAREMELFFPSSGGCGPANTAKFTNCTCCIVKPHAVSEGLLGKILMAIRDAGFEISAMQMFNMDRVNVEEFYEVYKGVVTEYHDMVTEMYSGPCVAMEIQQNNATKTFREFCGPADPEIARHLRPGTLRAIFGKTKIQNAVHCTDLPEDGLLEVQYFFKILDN
# UniProt O95544: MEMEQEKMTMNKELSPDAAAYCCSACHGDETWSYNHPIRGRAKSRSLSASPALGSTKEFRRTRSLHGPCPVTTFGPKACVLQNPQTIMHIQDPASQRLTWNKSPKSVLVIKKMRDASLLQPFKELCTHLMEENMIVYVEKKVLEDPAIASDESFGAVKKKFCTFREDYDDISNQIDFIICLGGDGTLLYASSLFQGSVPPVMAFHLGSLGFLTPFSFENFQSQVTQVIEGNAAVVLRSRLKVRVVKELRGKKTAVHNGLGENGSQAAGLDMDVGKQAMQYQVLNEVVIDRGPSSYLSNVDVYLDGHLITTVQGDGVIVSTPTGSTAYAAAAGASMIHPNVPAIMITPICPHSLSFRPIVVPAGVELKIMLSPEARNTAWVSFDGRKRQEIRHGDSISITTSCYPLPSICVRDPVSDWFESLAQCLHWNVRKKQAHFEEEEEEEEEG
# UniProt Q9UHY1: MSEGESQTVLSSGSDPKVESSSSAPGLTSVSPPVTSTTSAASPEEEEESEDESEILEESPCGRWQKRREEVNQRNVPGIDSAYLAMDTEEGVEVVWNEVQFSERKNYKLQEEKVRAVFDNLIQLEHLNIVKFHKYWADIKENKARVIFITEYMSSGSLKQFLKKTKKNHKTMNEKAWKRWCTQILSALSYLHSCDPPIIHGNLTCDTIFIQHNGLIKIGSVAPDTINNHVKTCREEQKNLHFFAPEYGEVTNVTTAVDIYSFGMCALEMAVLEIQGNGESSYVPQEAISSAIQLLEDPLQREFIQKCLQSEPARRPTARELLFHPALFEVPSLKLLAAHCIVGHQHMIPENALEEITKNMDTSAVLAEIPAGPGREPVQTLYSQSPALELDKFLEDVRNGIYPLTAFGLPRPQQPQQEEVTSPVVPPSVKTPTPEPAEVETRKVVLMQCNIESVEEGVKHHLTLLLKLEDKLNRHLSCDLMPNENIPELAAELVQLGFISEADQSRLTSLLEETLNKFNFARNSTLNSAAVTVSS
# UniProt Q9NXR1: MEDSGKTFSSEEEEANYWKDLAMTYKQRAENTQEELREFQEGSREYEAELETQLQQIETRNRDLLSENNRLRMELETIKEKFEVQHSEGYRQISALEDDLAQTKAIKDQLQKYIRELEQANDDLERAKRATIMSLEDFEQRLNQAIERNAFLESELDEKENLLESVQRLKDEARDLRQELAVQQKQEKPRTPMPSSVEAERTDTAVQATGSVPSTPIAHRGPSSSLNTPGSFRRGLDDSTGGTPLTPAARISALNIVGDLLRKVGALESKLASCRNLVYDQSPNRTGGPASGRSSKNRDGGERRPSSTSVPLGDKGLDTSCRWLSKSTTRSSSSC
# UniProt P25208: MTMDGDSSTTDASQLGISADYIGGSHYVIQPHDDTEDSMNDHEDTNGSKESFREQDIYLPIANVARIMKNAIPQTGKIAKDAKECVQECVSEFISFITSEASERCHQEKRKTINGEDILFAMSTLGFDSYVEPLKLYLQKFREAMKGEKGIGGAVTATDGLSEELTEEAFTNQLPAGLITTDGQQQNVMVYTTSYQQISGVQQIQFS
# UniProt Q9GZZ1: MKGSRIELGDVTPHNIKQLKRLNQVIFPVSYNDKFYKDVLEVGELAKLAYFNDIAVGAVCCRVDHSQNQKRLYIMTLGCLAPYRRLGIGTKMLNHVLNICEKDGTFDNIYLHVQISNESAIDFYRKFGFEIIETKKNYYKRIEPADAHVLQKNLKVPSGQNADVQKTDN
# UniProt Q9BPX3, whole entry, looked up: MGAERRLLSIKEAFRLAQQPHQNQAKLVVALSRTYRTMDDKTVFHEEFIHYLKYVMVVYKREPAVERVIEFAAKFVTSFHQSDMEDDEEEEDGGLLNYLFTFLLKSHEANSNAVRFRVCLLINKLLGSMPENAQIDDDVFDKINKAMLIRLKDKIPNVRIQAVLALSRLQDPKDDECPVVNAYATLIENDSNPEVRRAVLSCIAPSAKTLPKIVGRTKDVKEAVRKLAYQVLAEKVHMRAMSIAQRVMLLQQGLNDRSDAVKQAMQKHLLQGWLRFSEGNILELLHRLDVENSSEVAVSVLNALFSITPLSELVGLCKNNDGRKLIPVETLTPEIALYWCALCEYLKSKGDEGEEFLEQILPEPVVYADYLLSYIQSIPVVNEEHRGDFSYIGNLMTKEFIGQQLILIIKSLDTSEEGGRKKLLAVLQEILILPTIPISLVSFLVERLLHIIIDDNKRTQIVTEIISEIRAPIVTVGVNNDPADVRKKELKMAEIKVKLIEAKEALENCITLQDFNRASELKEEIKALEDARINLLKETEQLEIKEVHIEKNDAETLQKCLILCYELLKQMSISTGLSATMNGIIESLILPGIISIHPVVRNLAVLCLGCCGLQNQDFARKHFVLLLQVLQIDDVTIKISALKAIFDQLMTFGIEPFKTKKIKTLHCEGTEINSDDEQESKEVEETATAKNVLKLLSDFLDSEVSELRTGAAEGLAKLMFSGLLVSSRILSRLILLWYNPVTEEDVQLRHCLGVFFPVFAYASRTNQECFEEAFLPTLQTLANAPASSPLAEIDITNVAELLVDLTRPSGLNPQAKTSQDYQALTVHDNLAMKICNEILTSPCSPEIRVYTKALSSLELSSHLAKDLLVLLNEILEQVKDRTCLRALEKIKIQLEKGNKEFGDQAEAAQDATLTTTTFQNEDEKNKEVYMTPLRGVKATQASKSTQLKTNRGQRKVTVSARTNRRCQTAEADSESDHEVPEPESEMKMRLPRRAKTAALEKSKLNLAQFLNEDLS
# UniProt O15226: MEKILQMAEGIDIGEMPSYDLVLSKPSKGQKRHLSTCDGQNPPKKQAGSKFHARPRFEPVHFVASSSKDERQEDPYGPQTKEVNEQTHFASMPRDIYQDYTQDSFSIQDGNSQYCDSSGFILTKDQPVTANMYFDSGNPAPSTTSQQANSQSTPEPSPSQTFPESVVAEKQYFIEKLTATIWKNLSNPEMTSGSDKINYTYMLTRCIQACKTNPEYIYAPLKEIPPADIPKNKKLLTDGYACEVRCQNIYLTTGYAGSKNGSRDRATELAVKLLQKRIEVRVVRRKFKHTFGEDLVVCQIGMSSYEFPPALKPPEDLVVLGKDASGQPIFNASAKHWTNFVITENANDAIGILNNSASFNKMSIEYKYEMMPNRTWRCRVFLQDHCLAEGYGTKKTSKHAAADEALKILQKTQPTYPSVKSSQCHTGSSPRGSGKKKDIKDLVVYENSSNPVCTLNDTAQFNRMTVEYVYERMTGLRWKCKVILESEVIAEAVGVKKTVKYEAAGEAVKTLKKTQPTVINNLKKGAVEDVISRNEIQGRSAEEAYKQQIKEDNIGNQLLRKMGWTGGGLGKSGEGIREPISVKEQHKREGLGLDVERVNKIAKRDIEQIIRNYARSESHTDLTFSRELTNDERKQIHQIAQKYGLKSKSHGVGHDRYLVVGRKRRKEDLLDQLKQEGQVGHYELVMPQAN
# UniProt Q8N573: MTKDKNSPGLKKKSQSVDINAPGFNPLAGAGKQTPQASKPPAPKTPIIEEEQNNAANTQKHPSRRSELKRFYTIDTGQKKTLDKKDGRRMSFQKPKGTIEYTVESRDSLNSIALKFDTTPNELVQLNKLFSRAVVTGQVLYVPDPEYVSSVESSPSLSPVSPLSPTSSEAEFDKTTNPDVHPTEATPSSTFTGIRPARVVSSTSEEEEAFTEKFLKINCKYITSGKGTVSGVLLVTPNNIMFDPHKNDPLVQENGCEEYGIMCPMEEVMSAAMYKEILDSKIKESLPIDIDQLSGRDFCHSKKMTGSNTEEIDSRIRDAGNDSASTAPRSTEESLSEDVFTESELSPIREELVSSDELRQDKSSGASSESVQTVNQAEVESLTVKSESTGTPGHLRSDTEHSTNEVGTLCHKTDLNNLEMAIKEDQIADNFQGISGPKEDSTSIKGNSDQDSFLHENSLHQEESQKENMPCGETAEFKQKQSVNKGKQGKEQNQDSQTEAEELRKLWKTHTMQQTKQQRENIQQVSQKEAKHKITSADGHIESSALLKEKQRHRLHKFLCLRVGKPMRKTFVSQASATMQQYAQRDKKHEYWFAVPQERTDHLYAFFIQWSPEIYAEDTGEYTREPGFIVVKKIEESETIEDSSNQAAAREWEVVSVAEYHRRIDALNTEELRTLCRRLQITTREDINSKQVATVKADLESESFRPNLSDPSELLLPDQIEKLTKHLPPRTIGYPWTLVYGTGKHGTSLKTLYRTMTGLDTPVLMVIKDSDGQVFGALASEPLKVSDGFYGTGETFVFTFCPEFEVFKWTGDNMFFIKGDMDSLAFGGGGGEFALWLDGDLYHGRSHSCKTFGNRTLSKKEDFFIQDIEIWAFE
# UniProt P07237: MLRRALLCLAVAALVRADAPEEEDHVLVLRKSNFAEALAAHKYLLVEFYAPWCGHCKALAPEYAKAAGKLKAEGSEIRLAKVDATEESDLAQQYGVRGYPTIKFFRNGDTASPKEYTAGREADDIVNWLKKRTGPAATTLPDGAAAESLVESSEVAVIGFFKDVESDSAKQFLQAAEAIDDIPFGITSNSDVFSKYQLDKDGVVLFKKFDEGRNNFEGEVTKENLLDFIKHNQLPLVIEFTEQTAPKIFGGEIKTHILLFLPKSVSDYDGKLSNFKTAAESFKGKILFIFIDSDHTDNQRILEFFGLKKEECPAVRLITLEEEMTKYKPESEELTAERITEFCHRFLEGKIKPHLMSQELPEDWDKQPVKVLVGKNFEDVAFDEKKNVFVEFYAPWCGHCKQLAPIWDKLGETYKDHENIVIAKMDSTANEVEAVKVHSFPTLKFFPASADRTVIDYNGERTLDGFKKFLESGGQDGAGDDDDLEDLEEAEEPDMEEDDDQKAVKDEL
# The other results are listed elsewhere or left out.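 The calls were made as follows: active = dose-dependent thermal stabilisation significant by F-test of dose-response against flat model at 10% FDR; inactive = not significant.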
# Compound: Nc1nc2c(ncn2[C@@H]2O[C@H](COP(=O)(O)OP(=O)(O)OP(=O)(O)O)[C@@H](O)[C@H]2O)c(=O)[nH]1
# Assay: dose-dependent thermal stabilisation call (2D-TPP, DLPTP, 10% FDR) (binary (1 = stabilised)); higher = stabilised by the compound
# Conditions: system: Jurkat gel-filtered lysate; concentration range 1-500 µM
# Procedure: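 2D thermal proteome profiling in gel-filtered Jurkat E6.1 lysate (2 mg/ml) treated with NaGTP (0, 1, 10, 100, 500 uM) for 10 min at room temperature, then heated 3 min at one of 12 temperatures (42-63.9 C). Soluble protein was quantified by TMT10 MS. The value is the DLPTP call of the paper: dose-dependent thermal stabilisation over all temperatures at 10% FDR (F-test of a dose-response against a flat model); one experiment, one call per tested protein.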
row,Target,dose-dependent thermal stabilisation call
1,NIN (UniProt Q8N4C6),inactive: 0
2,NUDCD1 (UniProt Q96RS6),inactive: 0
3,NFKBIB (UniProt Q15653),inactive: 0
4,NAXD (UniProt Q8IW45),inactive: 0
5,NDOR1 (UniProt Q9UHB4),active: 1
6,NARF (UniProt Q9UHQ1),active: 1
7,OLA1 (UniProt Q9NTK5),inactive: 0
8,NFX1 (UniProt Q12986),inactive: 0
9,NPEPL1 (UniProt Q8NDH3),inactive: 0
10,NQO2 (UniProt P16083),inactive: 0
11,NME7 (UniProt Q9Y5B8),inactive: 0
12,PAFAH1B1 (UniProt P43034),inactive: 0
13,NSMCE2 (UniProt Q96MF7),inactive: 0
14,NIPBL (UniProt Q6KC79),inactive: 0
15,NADK (UniProt O95544),inactive: 0
16,NCAPH (UniProt Q15003),inactive: 0
17,NRBP1 (UniProt Q9UHY1),inactive: 0
18,NDE1 (UniProt Q9NXR1),inactive: 0
19,NUDCD2 (UniProt Q8WVJ2),inactive: 0
20,NIT2 (UniProt Q9NQR4),active: 1

row,Target,dose-dependent thermal stabilisation call
1,NAPG (UniProt Q99747),inactive: 0
2,NANS (UniProt Q9NR45),inactive: 0
3,NFYB (UniProt P25208),inactive: 0
4,NAA50 (UniProt Q9GZZ1),inactive: 0
5,NAT1 (UniProt P18440),inactive: 0
6,NCAPG (UniProt Q9BPX3),inactive: 0
7,N4BP2 (UniProt Q86UW6),inactive: 0
8,NKRF (UniProt O15226),inactive: 0
9,PATZ1 (UniProt Q9HBE1),inactive: 0
10,NIPSNAP3A (UniProt Q9UFN0),inactive: 0
11,PARP12 (UniProt Q9H0J9),inactive: 0
12,OXR1 (UniProt Q8N573),inactive: 0
13,NCOA5 (UniProt Q9HCD5),inactive: 0
14,NECAP2 (UniProt Q9NVZ3),inactive: 0
15,OXSM (UniProt Q9NWU1),inactive: 0
16,NELFA (UniProt Q9H3P2),inactive: 0
17,P4HB (UniProt P07237),inactive: 0
18,NACC1 (UniProt Q96RE7),inactive: 0
19,PABPN1 (UniProt Q86U42),inactive: 0
20,NUP214 (UniProt P35658),inactive: 0

# Three records picked at random from those above:
row,Target,dose-dependent thermal stabilisation call
13,NCOA5 (UniProt Q9HCD5),inactive: 0
18,NDE1 (UniProt Q9NXR1),inactive: 0
10,NQO2 (UniProt P16083),inactive: 0
